According to article doi:10.1101/2021.08.03.454925:
These are yes or no findings as the source states them, for the method shown. Some entries that bind do so weakly or less than the wild type.

Molecular target: T1, AccD (acetyl-CoA carboxylase subunit D) (UniProt P0A9Q5)
T1 sequence: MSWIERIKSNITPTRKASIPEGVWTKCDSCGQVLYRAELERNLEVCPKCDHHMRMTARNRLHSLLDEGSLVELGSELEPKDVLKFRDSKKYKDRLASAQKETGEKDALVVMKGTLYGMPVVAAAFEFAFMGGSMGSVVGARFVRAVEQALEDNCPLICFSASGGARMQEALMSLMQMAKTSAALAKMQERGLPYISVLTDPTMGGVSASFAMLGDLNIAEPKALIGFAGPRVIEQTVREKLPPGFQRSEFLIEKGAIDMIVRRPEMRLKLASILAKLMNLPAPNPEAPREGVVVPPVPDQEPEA
Experiment: co-purification

B1: AccA (acetyl-CoA carboxylase subunit A) (protein, UniProt P0ABD5 1-319)
chain: MSLNFLDFEQPIAELEAKIDSLTAVSRQDEKLDINIDEEVHRLREKSVELTRKIFADLGAWQIAQLARHPQRPYTLDYVRLAFDEFDELAGDRAYADDKAIVGGIARLDGRPVMIIGHQKGRETKEKIRRNFGMPAPEGYRKALRLMQMAERFKMPIITFIDTPGAYPGVGAEERGQSEAIARNLREMSRLGVPVVCTVIGEGGSGGALAIGVGDKVNMLQYSTYSVISPEGCASILWKSADKAPLAAEAMGIIAPRLKELKLIDSIIPEPLGGAHRNPEAMAASLKAQLLADLADLDVLSTEDLKNRRYQRLMSYGYA
binding: binds
